Measurements as given in the supplement of paper PMC3334620.
Over roughly 33,000 sequences, “E-score (-0.5 to 0.5)” has its median near -0.0034; the highest 2% begin near 0.25. This is one part of the list.

Molecular target: T1, Yap3 (UniProt P38749)
T1 sequence: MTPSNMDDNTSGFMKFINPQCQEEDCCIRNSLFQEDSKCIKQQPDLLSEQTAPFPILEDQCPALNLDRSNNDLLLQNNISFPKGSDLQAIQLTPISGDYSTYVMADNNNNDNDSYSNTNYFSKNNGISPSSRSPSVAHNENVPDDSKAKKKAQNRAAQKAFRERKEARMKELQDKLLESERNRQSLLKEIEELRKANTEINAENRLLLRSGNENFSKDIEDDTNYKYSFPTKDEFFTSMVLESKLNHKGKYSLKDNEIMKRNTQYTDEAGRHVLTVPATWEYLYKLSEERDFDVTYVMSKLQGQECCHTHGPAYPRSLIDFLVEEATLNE
Test: PBM E-score (8-mer binding enrichment) (E-score (-0.5 to 0.5)); higher = stronger / more preferred TF binding
Settings: protein concentration: 100 nM; construct: GST-full length
Protocol: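 Universal 'all 10-mer' protein binding microarrays (Agilent AMADID 015681) probed with GST-tagged S. cerevisiae TFs (full-length or DBD) made by in vitro transcription/translation (PURExpress), about 100-200 nM. Bound TF was detected with fluorescent anti-GST. Each ungapped 8-mer (which stands for itself and its reverse complement) is scored by the PBM enrichment score (E-score), a modified Wilcoxon-Mann-Whitney statistic from -0.5 to +0.5, computed with the Universal PBM Analysis Suite. Scale: above 0.35 generally sequence-specific binding.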

Sequence	PBM E-score
AATGAGGT	0.175
CCCTACAC	-0.0394
CGTCATCA	0.181
TACACGTA	0.121
CTAGTCTC	-0.191
ATAATAGC	0.0686
CAACGCAC	0.0337
GGAGGATA	-0.00306
ATCTCGAA	0.00282
ATTTCTGG	0.141
CTGTGAGC	-0.1
ATTAGTGG	0.243
AAGTTAAG	-0.00518
ACCGTTTA	0.0792
AGCGCTAA	0.132
CTCTATAC	-0.129
CAATCCCC	-0.118
AGACCTAA	-0.0638
TAATACGA	0.0909
TCTAGAAA	0.0342
CAACTGTG	0.0583
AGGGGGCG	-0.288
AGTCTACA	-0.159
CATGCCGA	0.135
CATTAGGC	-0.186

Sequence	PBM E-score
ATACTCAA	0.0765
CTCCAACA	0.141
CATACGAC	0.0835
AGTTCAAC	0.145
AGCGTGAG	-0.122
AATTCGCT	0.289
ATGCAGTG	0.0567
ACGACCTA	0.0267
ACCTTCCA	-0.0266
AGGGCTTA	-0.303
AAATACAG	0.17
GGACTCCC	-0.362
GATATGAC	0.064
CGGACTCA	0.0162
AATAACCC	0.183
TAACAAGA	-0.00233
AATGTGGT	0.114
CTGGGTCA	-0.167
TATAGATA	0.0759
ATGGACTC	-0.147
ACCTATAC	0.0526
ATTGTAAA	0.237
ATTCAACG	0.111
CGTGCCAA	-0.0894
CGTCACTC	-0.215

Sequence	PBM E-score
TCACGCAA	0.164
AGGGGCTA	-0.193
CATGTGCG	0.157
AAATAAAT	0.241
AGTGGTGG	-0.112
CCCTGTTA	0.134
GGCGGCAC	-0.00851
GAGCTGTA	-0.156
AACCAGAT	-0.072
CGGGTCTC	-0.262
CGGACCAA	0.069
GGGAGTTA	-0.0452
AGACTAAC	0.0822
ACCGTAAC	0.0883
CCCTAAAC	-0.226
CGCGAGCA	0.00461
ATAGAATG	0.174
TGCTCGAA	0.0154
GTTTCTGA	0.0779
CCCTCATA	-0.0529
GGGGCAAC	-0.00422
GGCCTGCA	-0.267
ATACTTAG	0.204
AGTTTTCG	0.138
AAGCCCCC	-0.391

Sequence	PBM E-score
CTAAACGC	0.183
GCATGGGC	-0.207
ATTTCTGA	0.0463
TACCACCA	-0.0158
GACCGCGC	-0.163
ATTCGCTG	0.0658
AACCGCTT	-0.0614
ATCGGGAG	-0.102
CGAGAAAC	0.0462
AAGCGGAC	-0.025
CTTCACAA	0.0252
ACGGTGAC	-0.0735
ATCGACAC	-0.00776
CCACGCTC	-0.203
ACAATGAG	-0.052
ACCGGGGC	-0.242
CACGGTGG	-0.0347
GCGAAGTA	0.0543
AAATCAGA	0.104
ACATAAAA	0.236
CCCCGGAA	-0.244
CAACCTGG	-0.074
CTGCCGAC	-0.136
GATAGTAC	0.0905
ATCTTTCG	0.0456

Reformatted as a markdown table: part of the list above.

| Sequence | PBM E-score |
| --- | --- |
| CTTCACAA | 0.0252 |
| ACGGTGAC | -0.0735 |

Retrieved one by one from the entries so far (seven):
Sequence	PBM E-score
ATTTCTGA	0.0463
ACGGTGAC	-0.0735
CACGGTGG	-0.0347
GACCGCGC	-0.163
CTGCCGAC	-0.136
ACATAAAA	0.236
ATCGACAC	-0.00776

(continued)

Sequence	PBM E-score
AACAGTGG	-0.00155
CCTACCCC	-0.242
CTGATAAG	0.0958
ACACTTTA	0.203
CAATTAGC	0.085
CCGTCATA	0.0469
ACAGACAT	-0.0462
ACGTTTGC	-0.0339
ACCAATCA	0.084
GTCTTTCA	-0.0208
AGGGCCCG	-0.216
TACCATGA	-0.0201
ATTCTCCA	0.102
AGACGGGA	-0.171
ACTTGTCT	-0.0439
CCACGCCC	-0.274
CCCCCACA	-0.335
ACGTCGAT	0.0972
ACTAACTC	-0.0293
TAGAACCA	0.139
AAGGAAGC	-0.0757
GTAGCAGA	0.00544
CCCCCAAC	-0.237
ACCCCGCG	-0.126
ATCGGACC	-0.0925

Sequence	PBM E-score
GACGCCAC	-0.143
ACGCTAAC	-0.0501
GCGACCGC	-0.0989
ATGCCGGC	-0.127
GTGCTGGA	-0.222
GAGGTTTA	0.0474
GTAATAAC	0.188
CAGGCACA	-0.29
CTAGATGA	-0.0244
AGAGGTGC	-0.146
CCTGTGGA	-0.317
GCAAGATA	0.175
AACTGTCT	-0.0473
CCGTTTAG	0.0753
ATGGTGGA	-0.062
CCTCAAAG	-0.132
AGCAGTGA	0.0385
AGGGTCGA	-0.0328
GCTGGTCA	-0.0384
ATATGCAG	-0.0467
GCCCTTCC	-0.229
CAATTTGC	0.0541
AAGCGTTA	0.00957
ATTTAGAG	0.178
ACCTCAGT	-0.0356

Sequence	PBM E-score
AGTGAGTC	-0.086
ATCTCTCA	0.15
GCTGGGAA	-0.0385
TAAGTGTA	0.0753
TTAGCCAA	0.0775
TAACAGAA	0.162
CGCACCCC	-0.263
ACTGCGGC	-0.153
CGTAACGA	0.105
CGTTCGCA	-0.0138
CCGGGTAG	-0.0953
CGACCCCG	-0.385
CGCTTAAA	0.102
CATTTTGA	0.073
GAGGCTCA	-0.346
AAATATAG	0.117
GCATACAC	0.0279
AGACTACG	-0.313
CTCCCAGC	-0.119
CCTTTATC	-0.104
ATTATTCA	0.277
TAAGGATA	0.0931
AATTCAGG	0.136
CGCGTGGC	-0.0879
CTCACAAA	0.0597

Sequence	PBM E-score
CACAACTA	0.262
ATGGTTGA	0.0884
ACGGCCAC	-0.0645
GTGTGAGA	0.00821
AATCTACG	-0.153
AATCAATG	0.2
GGTGCTAA	0.0102
CAGTGTAC	0.0413
TAACAATA	0.248
CGGTTGCC	0.00793
TATCTTCA	0.0961
CGGAATAG	0.0606
CACAAGCG	-0.0853
GCTCCTGA	-0.173
AATGTTAG	0.0701
CGCAGGGC	-0.133
ACTGGAAT	0.115
GAGAGAAC	-0.0326
TCAAAGAA	-0.0713
CAGATATG	0.0697
ATTCTAGC	-0.00162
CATAATAC	0.24
GTGGGTTA	-0.00831
GAAGGGTA	-0.0722
GCCATGCC	-0.0454

Sequence	PBM E-score
GCATTGGA	0.0411
ATACTAAT	0.143
GGACGAAA	0.048
AAGCGCCG	-0.0406
CCAACAAC	0.0446
GATCTTGA	0.0634
ATGTTTGG	0.0803
AAAGTTGA	-0.0882
CCTCTACA	-0.0182
GACCCCCC	-0.45
ATACTTCG	-0.0772
CTTCGGAA	0.102
CACTTAAA	0.0981
AGCATTTC	0.131
AGGCTCAC	-0.154
AGAATAAT	0.24
TCTTGGAA	0.0839
AGGCCACC	-0.175
TAAAAGCA	0.129
CTATCTCC	0.106
AGCCGACA	-0.251
AATCTTCG	-0.0143
TGAACGCA	0.0537
CGGTGATC	-0.16
CCTTCTTC	-0.168

Sequence	PBM E-score
ACGGCTGA	-0.0659
AATCCTCC	-0.0151
AACTGTCG	-0.0529
AGCGACAC	0.0189
CGATAGGA	-0.0346
ACGGACGG	-0.0731
CACAGCTA	-0.0953
ATGTGGGC	0.0796
CATTACGC	0.114
CCCCAGCC	-0.212
CGTCGCCC	-0.187
AATCCCAC	0.0193
GCTCCAGA	-0.179
ATGTATAA	0.221
ATGGAAGA	-0.0919
CAAGATAC	-0.0123
CAGGTGGG	-0.0568
ATAAGCAT	0.0575
TGGGCCAA	-0.166
GAAAACAA	0.199
GGAGATTA	0.0136
AAGCGATG	0.045
TGTAACAA	0.166
CAGGTGGA	-0.135
AATAGGGC	-0.126

Sequence	PBM E-score
ACTTTCAT	0.0531
AACGCCCC	-0.235
ATCAGAAA	0.0186
ATTCTCAG	-0.0714
CTAGTGAG	-0.0612
CTTAACTA	0.16
ATCTTAAG	0.066
CGTCTGAC	0.066
ATCTTAAA	0.18
ACGGCTCT	-0.0261
CAATAAGA	0.16
ATCCCCGA	-0.12
ATACTTCA	0.0363
CAAGCGGA	-0.0778
GAGCCCCC	-0.392
CCTTGCTA	0.00045
GGAGGCGA	-0.0372
AATCCTTG	0.0744
AAAGGCAT	0.0964
CTGCGATC	-0.0633
AGCTGAGC	-0.223
AGTTCTCG	0.0851
AATATCAC	0.222
CAGCGACC	-0.215
AAGTCAAC	0.0764

Sequence	PBM E-score
CCTCATTA	0.187
ATTTGCTG	0.0994
TCGCCAAA	-0.047
AAAGTAAA	0.138
CTTTTCCC	-0.0693
AGAAAGTG	0.0778
ATGAGTAA	0.284
ATTGCATC	0.0946
AATGGGAA	0.0119
AACATGGC	0.00524
GGGGCACC	-0.311
ATACAATG	0.193
CGGTGAAA	0.116
AAGAAGAT	0.0393
GCTCCACA	-0.182
ACGAAAAG	0.153
CAACTGAC	-0.00041
GAAAAAGC	0.0808
TCTGCAAA	-0.107
AGCGCCGA	-0.16
AGAGCCTA	0.0332
GTACATAC	0.0502
ATCACAAC	0.0374
CTCCTTTA	-0.126
ATGCTATA	0.0819

Sequence	PBM E-score
AAGAAATA	0.194
AACACGTT	-0.00312
GCAATAGA	-0.0281
AGCTATTA	0.0802
CGCAACTA	0.249
TCTGACAA	0.025
CCGTTCCA	-0.0072
CAAGAACC	0.182
TGCCGTAA	0.0981
CGTTAACG	0.151
GAGCCTAA	-0.0251
ATAATTCA	0.282
GAAGGCGC	-0.233
ACACATAG	-0.0796
GACTCGTA	-0.126
ACAGTTAG	0.112
AGAGTGTG	0.0481
CAAAGCGG	-0.00846
AGCGTCAT	0.00495
CTTTACGC	0.105
CAATCCAG	0.16
CACTATGG	-0.0816
CAAATCTG	-0.00824
ACATAAGT	0.159
GATTAAGC	0.166

Sequence	PBM E-score
AAACTTCA	0.0931
CTCCCCGA	-0.183
ACGCGACG	0.172
CACTACAA	0.184
ACGGCGAT	0.0211
AAAGTTCT	0.0391
AATTTAGC	0.0858
GAAACTGA	-0.116
CCGACCTA	0.0425
AAAGACCG	-0.0827
CGCCTTGA	-0.19
TCGGTCAA	0.0943
CGTCGCTA	0.11
GCACTCCC	-0.0915
ATCGAGAT	0.0259
GAAGAAAA	0.0429
ATCGGTTA	0.165
GCCACCGC	-0.163
CCCTGGCC	-0.333
